Measurements as given in the supplement of paper PMC12823440, “Inhibitors supercharge kinase turnover through native proteolytic circuits” (Nature, 2025).
The list shows a part of the results. Hit calls seldom repeat between salt and free forms of one compound.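 Kinases, fused to nanoluciferase, were expressed in K562 cells; luminescence was measured every 4 h from 2 to 18 h as percent of control (DMSO = 100%, positive control = 0%). A time point is decreased if signal falls significantly (2 sigma). Hits were called by the authors by a rule that is not shown; the count of time points alone does not decide it.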

Protein sequences, listed by entry. Tags and fused reporters are not part of them. Lines headed by an entry give the natural chain unless they say otherwise; changes in a name come on top.
UniProt P42680: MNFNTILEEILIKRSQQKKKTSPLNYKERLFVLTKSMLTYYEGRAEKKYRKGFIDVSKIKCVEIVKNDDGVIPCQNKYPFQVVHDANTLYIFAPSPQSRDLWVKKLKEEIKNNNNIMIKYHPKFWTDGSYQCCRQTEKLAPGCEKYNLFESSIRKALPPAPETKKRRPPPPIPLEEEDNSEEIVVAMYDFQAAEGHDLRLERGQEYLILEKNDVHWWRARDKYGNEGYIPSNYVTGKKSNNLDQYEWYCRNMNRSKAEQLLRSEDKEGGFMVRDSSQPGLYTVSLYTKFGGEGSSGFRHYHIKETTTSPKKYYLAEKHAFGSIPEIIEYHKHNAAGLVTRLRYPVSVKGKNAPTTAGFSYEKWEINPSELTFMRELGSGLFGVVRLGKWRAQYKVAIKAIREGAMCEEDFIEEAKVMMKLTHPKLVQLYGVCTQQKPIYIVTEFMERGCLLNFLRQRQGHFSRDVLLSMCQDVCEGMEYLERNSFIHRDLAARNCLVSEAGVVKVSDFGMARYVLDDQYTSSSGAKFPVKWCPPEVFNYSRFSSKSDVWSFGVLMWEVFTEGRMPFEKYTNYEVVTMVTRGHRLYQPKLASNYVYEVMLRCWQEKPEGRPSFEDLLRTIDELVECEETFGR
UniProt P29597: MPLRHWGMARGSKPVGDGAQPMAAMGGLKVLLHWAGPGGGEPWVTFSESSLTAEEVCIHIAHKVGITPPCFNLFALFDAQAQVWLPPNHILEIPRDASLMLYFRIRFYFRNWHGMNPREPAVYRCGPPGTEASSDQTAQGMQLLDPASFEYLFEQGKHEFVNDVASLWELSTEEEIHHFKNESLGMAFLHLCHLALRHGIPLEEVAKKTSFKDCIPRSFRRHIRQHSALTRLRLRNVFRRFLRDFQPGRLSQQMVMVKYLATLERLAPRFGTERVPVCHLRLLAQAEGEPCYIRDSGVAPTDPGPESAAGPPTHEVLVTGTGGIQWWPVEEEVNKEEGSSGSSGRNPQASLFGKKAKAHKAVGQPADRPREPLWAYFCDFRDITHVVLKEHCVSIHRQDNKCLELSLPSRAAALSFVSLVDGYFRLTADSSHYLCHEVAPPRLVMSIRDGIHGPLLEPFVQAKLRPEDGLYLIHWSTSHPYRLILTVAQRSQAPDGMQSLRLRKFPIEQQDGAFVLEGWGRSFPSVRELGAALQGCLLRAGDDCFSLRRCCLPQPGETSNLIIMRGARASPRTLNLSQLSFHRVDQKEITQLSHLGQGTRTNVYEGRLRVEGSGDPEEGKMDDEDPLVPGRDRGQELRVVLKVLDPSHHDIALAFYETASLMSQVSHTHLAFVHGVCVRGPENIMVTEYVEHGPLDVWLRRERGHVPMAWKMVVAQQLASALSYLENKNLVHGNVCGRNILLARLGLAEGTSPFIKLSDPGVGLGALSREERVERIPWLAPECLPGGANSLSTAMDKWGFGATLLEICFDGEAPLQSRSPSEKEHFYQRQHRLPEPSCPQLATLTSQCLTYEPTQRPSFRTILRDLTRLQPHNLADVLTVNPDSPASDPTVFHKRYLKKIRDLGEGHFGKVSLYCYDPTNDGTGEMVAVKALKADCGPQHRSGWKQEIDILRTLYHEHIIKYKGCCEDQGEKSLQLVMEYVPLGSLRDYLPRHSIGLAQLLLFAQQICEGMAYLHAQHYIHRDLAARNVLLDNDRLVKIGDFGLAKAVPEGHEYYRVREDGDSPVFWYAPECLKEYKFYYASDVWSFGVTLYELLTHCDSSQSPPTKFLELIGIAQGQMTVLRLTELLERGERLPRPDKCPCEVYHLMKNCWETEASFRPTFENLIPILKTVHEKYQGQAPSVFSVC
UniProt Q6PHR2: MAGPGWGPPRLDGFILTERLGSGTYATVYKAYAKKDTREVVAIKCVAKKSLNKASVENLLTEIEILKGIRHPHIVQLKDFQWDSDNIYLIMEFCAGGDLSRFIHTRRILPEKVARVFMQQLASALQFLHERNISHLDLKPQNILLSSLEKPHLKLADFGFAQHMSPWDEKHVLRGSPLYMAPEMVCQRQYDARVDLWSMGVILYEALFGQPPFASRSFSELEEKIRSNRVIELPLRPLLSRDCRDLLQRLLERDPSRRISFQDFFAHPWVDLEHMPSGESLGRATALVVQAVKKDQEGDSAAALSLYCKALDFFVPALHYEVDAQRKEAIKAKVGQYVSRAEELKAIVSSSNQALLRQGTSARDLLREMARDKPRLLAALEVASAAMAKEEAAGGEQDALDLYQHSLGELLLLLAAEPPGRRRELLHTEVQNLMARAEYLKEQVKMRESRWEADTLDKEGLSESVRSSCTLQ
UniProt P07947, whole entry, looked up: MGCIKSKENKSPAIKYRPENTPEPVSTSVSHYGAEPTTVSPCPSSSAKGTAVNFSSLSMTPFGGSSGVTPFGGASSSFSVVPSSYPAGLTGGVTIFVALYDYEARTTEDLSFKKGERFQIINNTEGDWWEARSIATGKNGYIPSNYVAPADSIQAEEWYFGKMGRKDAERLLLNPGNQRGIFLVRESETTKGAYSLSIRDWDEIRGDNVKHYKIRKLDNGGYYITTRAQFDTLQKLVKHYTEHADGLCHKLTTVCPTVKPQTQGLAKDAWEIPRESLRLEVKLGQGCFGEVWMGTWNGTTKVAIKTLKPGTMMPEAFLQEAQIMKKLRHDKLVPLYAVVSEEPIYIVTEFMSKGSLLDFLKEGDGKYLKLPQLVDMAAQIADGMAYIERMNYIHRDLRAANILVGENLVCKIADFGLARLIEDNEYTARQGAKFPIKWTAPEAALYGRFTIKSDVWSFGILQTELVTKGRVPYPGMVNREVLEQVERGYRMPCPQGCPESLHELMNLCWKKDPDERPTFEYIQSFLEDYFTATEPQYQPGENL
UniProt P43403: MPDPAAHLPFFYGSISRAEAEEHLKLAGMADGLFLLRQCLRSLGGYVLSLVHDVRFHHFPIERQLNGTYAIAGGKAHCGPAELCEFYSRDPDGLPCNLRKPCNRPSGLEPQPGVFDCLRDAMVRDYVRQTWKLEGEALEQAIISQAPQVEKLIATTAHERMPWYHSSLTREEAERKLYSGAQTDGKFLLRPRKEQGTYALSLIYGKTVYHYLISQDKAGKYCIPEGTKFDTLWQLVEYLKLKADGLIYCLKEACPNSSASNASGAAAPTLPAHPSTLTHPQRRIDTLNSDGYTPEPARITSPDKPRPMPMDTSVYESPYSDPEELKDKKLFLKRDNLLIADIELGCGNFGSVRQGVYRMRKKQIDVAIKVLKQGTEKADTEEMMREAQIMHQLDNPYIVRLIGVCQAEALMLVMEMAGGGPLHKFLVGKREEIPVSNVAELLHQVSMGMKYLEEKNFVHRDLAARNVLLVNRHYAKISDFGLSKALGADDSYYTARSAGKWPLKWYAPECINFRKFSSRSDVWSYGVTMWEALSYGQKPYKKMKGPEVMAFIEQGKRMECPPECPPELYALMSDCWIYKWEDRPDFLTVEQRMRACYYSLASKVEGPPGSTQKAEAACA
UniProt Q9UM73: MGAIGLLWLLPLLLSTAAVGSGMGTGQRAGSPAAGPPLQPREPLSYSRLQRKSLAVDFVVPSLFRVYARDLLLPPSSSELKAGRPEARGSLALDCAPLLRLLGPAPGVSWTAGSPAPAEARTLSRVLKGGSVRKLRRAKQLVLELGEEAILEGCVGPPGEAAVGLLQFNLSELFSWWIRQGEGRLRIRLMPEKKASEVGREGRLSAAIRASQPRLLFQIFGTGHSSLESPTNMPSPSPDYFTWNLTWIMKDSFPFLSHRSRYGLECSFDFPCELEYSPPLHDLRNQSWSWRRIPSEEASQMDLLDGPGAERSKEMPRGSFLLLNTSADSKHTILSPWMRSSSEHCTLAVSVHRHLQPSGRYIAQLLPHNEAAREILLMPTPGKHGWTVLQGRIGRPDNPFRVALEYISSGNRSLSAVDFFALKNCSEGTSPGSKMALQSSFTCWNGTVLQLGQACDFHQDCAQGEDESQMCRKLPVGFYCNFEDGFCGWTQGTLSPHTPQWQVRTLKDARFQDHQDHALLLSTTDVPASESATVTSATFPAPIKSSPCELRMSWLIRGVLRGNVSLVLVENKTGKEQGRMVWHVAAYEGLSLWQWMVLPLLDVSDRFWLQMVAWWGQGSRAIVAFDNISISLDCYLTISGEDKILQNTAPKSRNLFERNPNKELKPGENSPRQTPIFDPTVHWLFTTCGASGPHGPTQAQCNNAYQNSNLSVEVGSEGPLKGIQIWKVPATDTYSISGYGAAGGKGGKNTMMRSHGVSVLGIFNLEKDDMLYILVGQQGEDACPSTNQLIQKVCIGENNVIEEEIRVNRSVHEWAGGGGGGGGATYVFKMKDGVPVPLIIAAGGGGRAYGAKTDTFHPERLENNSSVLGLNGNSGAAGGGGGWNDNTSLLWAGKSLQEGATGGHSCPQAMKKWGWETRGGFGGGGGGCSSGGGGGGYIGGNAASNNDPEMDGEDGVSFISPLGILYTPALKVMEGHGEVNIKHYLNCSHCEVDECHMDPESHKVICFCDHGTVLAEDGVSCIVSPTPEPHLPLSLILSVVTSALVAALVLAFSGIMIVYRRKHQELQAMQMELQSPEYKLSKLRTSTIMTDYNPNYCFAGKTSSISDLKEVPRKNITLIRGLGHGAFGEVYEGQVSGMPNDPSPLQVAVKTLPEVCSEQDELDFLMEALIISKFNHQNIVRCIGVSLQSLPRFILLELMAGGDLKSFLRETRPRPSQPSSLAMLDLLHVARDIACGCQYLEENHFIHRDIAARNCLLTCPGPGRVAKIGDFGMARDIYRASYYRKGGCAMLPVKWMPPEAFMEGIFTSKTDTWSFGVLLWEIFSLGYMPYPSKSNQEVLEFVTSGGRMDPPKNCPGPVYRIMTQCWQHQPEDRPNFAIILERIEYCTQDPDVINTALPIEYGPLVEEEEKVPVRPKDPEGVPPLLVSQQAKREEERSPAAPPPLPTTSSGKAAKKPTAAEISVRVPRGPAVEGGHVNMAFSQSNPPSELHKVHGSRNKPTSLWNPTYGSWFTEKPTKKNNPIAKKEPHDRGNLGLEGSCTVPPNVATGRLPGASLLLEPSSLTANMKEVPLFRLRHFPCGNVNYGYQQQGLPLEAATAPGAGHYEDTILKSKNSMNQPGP
UniProt P10398: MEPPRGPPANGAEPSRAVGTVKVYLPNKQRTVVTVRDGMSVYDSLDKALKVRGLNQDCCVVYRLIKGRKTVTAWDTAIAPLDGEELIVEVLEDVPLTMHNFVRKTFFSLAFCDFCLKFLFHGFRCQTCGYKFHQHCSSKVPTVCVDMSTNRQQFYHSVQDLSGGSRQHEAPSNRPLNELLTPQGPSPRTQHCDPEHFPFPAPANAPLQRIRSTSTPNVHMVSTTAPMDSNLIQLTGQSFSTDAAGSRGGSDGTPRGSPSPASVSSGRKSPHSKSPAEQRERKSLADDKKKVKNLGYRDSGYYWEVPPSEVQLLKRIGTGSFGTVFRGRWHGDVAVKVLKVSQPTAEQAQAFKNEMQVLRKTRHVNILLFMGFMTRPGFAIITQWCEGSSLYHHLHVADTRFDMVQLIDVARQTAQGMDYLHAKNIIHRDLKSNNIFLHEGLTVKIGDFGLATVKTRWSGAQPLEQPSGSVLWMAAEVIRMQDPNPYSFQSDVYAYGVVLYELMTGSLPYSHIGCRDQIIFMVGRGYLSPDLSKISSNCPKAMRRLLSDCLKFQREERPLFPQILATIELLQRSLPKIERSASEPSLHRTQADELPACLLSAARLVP
UniProt Q96GD4, whole entry: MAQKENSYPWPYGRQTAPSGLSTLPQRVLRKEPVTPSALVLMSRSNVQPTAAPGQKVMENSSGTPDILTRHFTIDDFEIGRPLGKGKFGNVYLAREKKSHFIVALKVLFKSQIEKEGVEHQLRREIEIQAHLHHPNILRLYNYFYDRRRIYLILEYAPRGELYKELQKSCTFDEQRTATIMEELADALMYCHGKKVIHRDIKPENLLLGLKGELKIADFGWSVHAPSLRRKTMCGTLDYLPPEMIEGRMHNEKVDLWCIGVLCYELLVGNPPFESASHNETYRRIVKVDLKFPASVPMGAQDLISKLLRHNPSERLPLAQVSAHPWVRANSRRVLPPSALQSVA
UniProt Q9UQB9: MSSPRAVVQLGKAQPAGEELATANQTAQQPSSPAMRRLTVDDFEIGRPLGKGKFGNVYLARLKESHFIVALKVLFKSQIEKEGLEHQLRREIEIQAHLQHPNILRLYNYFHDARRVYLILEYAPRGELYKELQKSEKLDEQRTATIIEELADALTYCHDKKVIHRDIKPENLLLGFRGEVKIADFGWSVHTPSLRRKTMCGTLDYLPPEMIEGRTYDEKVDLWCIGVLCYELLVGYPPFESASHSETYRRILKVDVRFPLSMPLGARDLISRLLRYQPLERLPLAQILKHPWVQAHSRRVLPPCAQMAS

Experiments:
Conditions in all cases: K562; 2-18 h
STK38 = STK38 (UniProt Q15208); test: kinase-Nluc reporter destabilization hit call (1 = scored as downregulated) (binary); higher = compound decreases kinase abundance
SYK = SYK (UniProt P43405); test: as above
TEC = TEC (UniProt P42680); test: as above
TYK2 = TYK2 (UniProt P29597); test: as above
ULK3 = ULK3 (UniProt Q6PHR2); test: as above
YES1 = YES1 (UniProt P07947); test: as above
ZAK = ZAK (UniProt Q9NYL2); test: as above
ZAP70 = ZAP70 (UniProt P43403); test: as above
ABL1 = ABL1 (UniProt P00519); test: number of time points (of 5) at which kinase-Nluc abundance scored as decreased, DMSO-normalised (count); higher = more persistent destabilization
AKT1 = AKT1 (UniProt P31749); test: as above
ALK = ALK (UniProt Q9UM73); test: as above
ARAF = ARAF (UniProt P10398); test: as above
AURKA = AURKA (UniProt O14965); test: as above
AURKB = AURKB (UniProt Q96GD4); test: as above
AURKC = AURKC (UniProt Q9UQB9); test: as above
BLK = BLK (UniProt P51451); test: as above
BMX = BMX (UniProt P51813); test: as above
BRAF = BRAF (UniProt P15056); test: as above
BRAF_V600E = test: as above
BTK = BTK (UniProt Q06187); test: as above

Cc1[nH]c(/C=C2\C(=O)Nc3ccc(F)cc32)c(C)c1C(=O)N[C@H]1CCN(C(=O)N(C)C)C1 [Vorolanib] (10 µM)
inactive: kinase-Nluc reporter destabilization hit call (STK38) 0 | kinase-Nluc reporter destabilization hit call (SYK) 0 | kinase-Nluc reporter destabilization hit call (TEC) 0 | kinase-Nluc reporter destabilization hit call (TYK2) 0 | kinase-Nluc reporter destabilization hit call (ULK3) 0 | kinase-Nluc reporter destabilization hit call (YES1) 0 | kinase-Nluc reporter destabilization hit call (ZAK) 0 | kinase-Nluc reporter destabilization hit call (ZAP70) 0
0: number of time points (ABL1) | number of time points (AKT1) | number of time points (ALK) | number of time points (ARAF) | number of time points (AURKA) | number of time points (AURKB) | number of time points (AURKC) | number of time points (BLK) | number of time points (BMX) | number of time points (BRAF) | number of time points (BRAF_V600E) | number of time points (BTK)

C[C@]1(O)CCN(c2nc(N3C[C@H](O)[C@@H](O)C3)cc(C(F)(F)F)c2C#N)C1 (10 µM)
0: number of time points (ABL1) | number of time points (AKT1) | number of time points (ALK) | number of time points (ARAF) | number of time points (AURKA) | number of time points (AURKB) | number of time points (AURKC) | number of time points (BLK) | number of time points (BMX) | number of time points (BRAF) | number of time points (BRAF_V600E) | number of time points (BTK)
inactive: kinase-Nluc reporter destabilization hit call (STK38) 0 | kinase-Nluc reporter destabilization hit call (SYK) 0 | kinase-Nluc reporter destabilization hit call (TEC) 0 | kinase-Nluc reporter destabilization hit call (TYK2) 0 | kinase-Nluc reporter destabilization hit call (ULK3) 0 | kinase-Nluc reporter destabilization hit call (YES1) 0 | kinase-Nluc reporter destabilization hit call (ZAK) 0 | kinase-Nluc reporter destabilization hit call (ZAP70) 0

Cn1ncc(Cl)c1-c1cc(C(=O)N[C@H](CN)Cc2ccc(F)c(F)c2)oc1Cl [Uprosertib] (10 µM)
0: number of time points (ABL1) | number of time points (AKT1) | number of time points (ALK) | number of time points (ARAF) | number of time points (AURKA) | number of time points (AURKB) | number of time points (AURKC) | number of time points (BLK) | number of time points (BMX) | number of time points (BRAF) | number of time points (BRAF_V600E) | number of time points (BTK)
inactive: kinase-Nluc reporter destabilization hit call (STK38) 0 | kinase-Nluc reporter destabilization hit call (SYK) 0 | kinase-Nluc reporter destabilization hit call (TEC) 0 | kinase-Nluc reporter destabilization hit call (TYK2) 0 | kinase-Nluc reporter destabilization hit call (ULK3) 0 | kinase-Nluc reporter destabilization hit call (YES1) 0 | kinase-Nluc reporter destabilization hit call (ZAK) 0 | kinase-Nluc reporter destabilization hit call (ZAP70) 0

CCS(=O)(=O)c1ncc(Cl)c(C(=O)N(Cc2ccc(Cl)cc2)Cc2ccco2)n1 (2.5 µM)
inactive: kinase-Nluc reporter destabilization hit call (STK38) 0 | kinase-Nluc reporter destabilization hit call (SYK) 0 | kinase-Nluc reporter destabilization hit call (TEC) 0 | kinase-Nluc reporter destabilization hit call (TYK2) 0 | kinase-Nluc reporter destabilization hit call (ULK3) 0 | kinase-Nluc reporter destabilization hit call (YES1) 0 | kinase-Nluc reporter destabilization hit call (ZAK) 0 | kinase-Nluc reporter destabilization hit call (ZAP70) 0
3: number of time points (AURKA) | number of time points (BLK)
0: number of time points (ABL1) | number of time points (AKT1) | number of time points (ALK) | number of time points (ARAF) | number of time points (AURKB) | number of time points (AURKC) | number of time points (BMX) | number of time points (BRAF) | number of time points (BRAF_V600E) | number of time points (BTK)

Cn1cc(-c2ccc3nnc(Sc4ccc5ncccc5c4)n3n2)cn1 (10 µM)
inactive: kinase-Nluc reporter destabilization hit call (STK38) 0 | kinase-Nluc reporter destabilization hit call (SYK) 0 | kinase-Nluc reporter destabilization hit call (TEC) 0 | kinase-Nluc reporter destabilization hit call (TYK2) 0 | kinase-Nluc reporter destabilization hit call (ULK3) 0 | kinase-Nluc reporter destabilization hit call (YES1) 0 | kinase-Nluc reporter destabilization hit call (ZAK) 0 | kinase-Nluc reporter destabilization hit call (ZAP70) 0
0: number of time points (ABL1) | number of time points (AKT1) | number of time points (ALK) | number of time points (ARAF) | number of time points (AURKA) | number of time points (AURKB) | number of time points (AURKC) | number of time points (BLK) | number of time points (BMX) | number of time points (BRAF) | number of time points (BRAF_V600E) | number of time points (BTK)

O=c1cc(CN2CCOCC2)occ1OCCCCCSc1ccnc2cc(C(F)(F)F)ccc12 (10 µM)
0: number of time points (ABL1) | number of time points (AKT1) | number of time points (ALK) | number of time points (ARAF) | number of time points (AURKA) | number of time points (AURKB) | number of time points (AURKC) | number of time points (BLK) | number of time points (BMX) | number of time points (BRAF) | number of time points (BRAF_V600E) | number of time points (BTK)
inactive: kinase-Nluc reporter destabilization hit call (STK38) 0 | kinase-Nluc reporter destabilization hit call (SYK) 0 | kinase-Nluc reporter destabilization hit call (TEC) 0 | kinase-Nluc reporter destabilization hit call (TYK2) 0 | kinase-Nluc reporter destabilization hit call (ULK3) 0 | kinase-Nluc reporter destabilization hit call (YES1) 0 | kinase-Nluc reporter destabilization hit call (ZAK) 0 | kinase-Nluc reporter destabilization hit call (ZAP70) 0

CC(=O)NC1CC(n2cnc(NC(=O)Cc3ccc4ccccc4c3)c2)C1 (stereo not given) (10 µM)
inactive: kinase-Nluc reporter destabilization hit call (STK38) 0 | kinase-Nluc reporter destabilization hit call (SYK) 0 | kinase-Nluc reporter destabilization hit call (TEC) 0 | kinase-Nluc reporter destabilization hit call (TYK2) 0 | kinase-Nluc reporter destabilization hit call (ULK3) 0 | kinase-Nluc reporter destabilization hit call (YES1) 0 | kinase-Nluc reporter destabilization hit call (ZAK) 0 | kinase-Nluc reporter destabilization hit call (ZAP70) 0
0: number of time points (ABL1) | number of time points (AKT1) | number of time points (ALK) | number of time points (ARAF) | number of time points (AURKA) | number of time points (AURKB) | number of time points (AURKC) | number of time points (BLK) | number of time points (BMX) | number of time points (BRAF) | number of time points (BRAF_V600E) | number of time points (BTK)

c1ccc(-c2[nH]ncc2-c2ccnc3ccccc23)nc1 (10 µM)
0: number of time points (ABL1) | number of time points (AKT1) | number of time points (ALK) | number of time points (ARAF) | number of time points (AURKA) | number of time points (AURKB) | number of time points (AURKC) | number of time points (BLK) | number of time points (BMX) | number of time points (BRAF) | number of time points (BRAF_V600E) | number of time points (BTK)
inactive: kinase-Nluc reporter destabilization hit call (STK38) 0 | kinase-Nluc reporter destabilization hit call (SYK) 0 | kinase-Nluc reporter destabilization hit call (TEC) 0 | kinase-Nluc reporter destabilization hit call (TYK2) 0 | kinase-Nluc reporter destabilization hit call (ULK3) 0 | kinase-Nluc reporter destabilization hit call (YES1) 0 | kinase-Nluc reporter destabilization hit call (ZAK) 0 | kinase-Nluc reporter destabilization hit call (ZAP70) 0

Cc1ccc2cc(-c3c(C)ccc(C(=O)c4c(-c5ccccc5)n(C)n(-c5ccccc5)c4=O)c3N)ccc2n1 (2.5 µM)
inactive: kinase-Nluc reporter destabilization hit call (STK38) 0 | kinase-Nluc reporter destabilization hit call (SYK) 0 | kinase-Nluc reporter destabilization hit call (TEC) 0 | kinase-Nluc reporter destabilization hit call (TYK2) 0 | kinase-Nluc reporter destabilization hit call (ULK3) 0 | kinase-Nluc reporter destabilization hit call (YES1) 0 | kinase-Nluc reporter destabilization hit call (ZAK) 0 | kinase-Nluc reporter destabilization hit call (ZAP70) 0
0: number of time points (ABL1) | number of time points (AKT1) | number of time points (ALK) | number of time points (ARAF) | number of time points (AURKA) | number of time points (AURKB) | number of time points (AURKC) | number of time points (BLK) | number of time points (BMX) | number of time points (BRAF) | number of time points (BRAF_V600E) | number of time points (BTK)

CNc1nc(Nc2ccc(C(=O)N3CCOCC3)cc2OC)nc2[nH]cc(Cl)c12 (2.5 µM)
inactive: kinase-Nluc reporter destabilization hit call (STK38) 0 | kinase-Nluc reporter destabilization hit call (SYK) 0 | kinase-Nluc reporter destabilization hit call (TEC) 0 | kinase-Nluc reporter destabilization hit call (TYK2) 0 | kinase-Nluc reporter destabilization hit call (ULK3) 0 | kinase-Nluc reporter destabilization hit call (YES1) 0 | kinase-Nluc reporter destabilization hit call (ZAK) 0 | kinase-Nluc reporter destabilization hit call (ZAP70) 0
0: number of time points (ABL1) | number of time points (AKT1) | number of time points (ALK) | number of time points (ARAF) | number of time points (AURKA) | number of time points (AURKB) | number of time points (AURKC) | number of time points (BLK) | number of time points (BMX) | number of time points (BRAF) | number of time points (BRAF_V600E) | number of time points (BTK)
